{
  "source": "the supplement of paper PMC8728848",
  "binders": {"B1": {"name": "GST Gap3 (Streptococcus parasanguinis) (protein)", "chain": "MTKQLISEIYWNEIRKGENYLYGSQIKFQEDLVNFYNPQLASGKPIVTFKSRTNYQGDRHSPDLPILIQGNRYLLEYQIDAVPANSFFLQLDFFNRQAEQIESIVLRNSGESFIFPKDTFTYTLTLMSAGCQSVTYQKFMIYDINDEEKKNHIVENRYLRELLPKDLDLVKNLIEYI"}},
  "assay_in_all_cases": "glycan array binding signal (z-score within array); higher = stronger binding",
  "conditions_in_all_cases": "glycan notation: IUPAC condensed, linker removed",
  "key": {"[1]": {"target": "Gal(b1-4)GlcNAc(b1-2)[Gal(b1-4)GlcNAc(b1-6)]Man(a1-6)[GlcNAc(b1-4)][Gal(b1-4)GlcNAc(b1-2)[Gal(b1-4)GlcNAc(b1-4)]Man(a1-3)]Man(b1-4)GlcNAc(b1-4)[Fuc(a1-6)]GlcNAc", "in_short": "(§1)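 Glycan array data came from 3228 arrays in the Consortium for Functional Glycomics database, and only arrays with an available protein sequence were kept. Glycan names were put into IUPAC-condensed notation, and columns mapping to the same glycan were averaged. The binding signal is a within-array Z-score, averaged across arrays of one protein sequence run at different concentrations or buffers and across linkers. A negative Z-score can be read as non-binding.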"}, "[2]": {"target": "Gal(b1-4)GlcNAc(b1-3)Gal(b1-3)GalNAc", "in_short": "as §1"}, "[3]": {"target": "Gal(b1-4)GlcNAc(b1-3)Gal(b1-3)GlcNAc", "in_short": "as §1"}, "[4]": {"target": "Gal(b1-4)GlcNAc(b1-3)Gal(b1-4)Glc", "in_short": "as §1"}, "[5]": {"target": "Gal(b1-4)GlcNAc(b1-3)Gal(b1-4)GlcNAc", "in_short": "as §1"}, "[6]": {"target": "Gal(b1-4)GlcNAc(b1-3)Gal(b1-4)GlcNAc(b1-2)Man(a1-3)[Gal(b1-4)GlcNAc(b1-3)Gal(b1-4)GlcNAc(b1-2)Man(a1-6)]Man(b1-4)GlcNAc(b1-4)GlcNAc", "in_short": "as §1"}, "[7]": {"target": "Gal(b1-4)GlcNAc(b1-3)Gal(b1-4)GlcNAc(b1-2)Man(a1-3)[Gal(b1-4)GlcNAc(b1-3)Gal(b1-4)GlcNAc(b1-2)Man(a1-6)]Man(b1-4)GlcNAc(b1-4)[Fuc(a1-6)]GlcNAc", "in_short": "as §1"}, "[8]": {"target": "Gal(b1-4)GlcNAc(b1-3)Gal(b1-4)GlcNAc(b1-2)[Gal(b1-4)GlcNAc(b1-3)Gal(b1-4)GlcNAc(b1-6)]Man(a1-6)[Gal(b1-4)GlcNAc(b1-3)Gal(b1-4)GlcNAc(b1-2)Man(a1-3)]Man(b1-4)GlcNAc(b1-4)GlcNAc", "in_short": "as §1"}, "[9]": {"target": "Gal(b1-4)GlcNAc(b1-3)Gal(b1-4)GlcNAc(b1-2)[Gal(b1-4)GlcNAc(b1-3)Gal(b1-4)GlcNAc(b1-6)]Man(a1-6)[Gal(b1-4)GlcNAc(b1-3)Gal(b1-4)GlcNAc(b1-2)Man(a1-3)]Man(b1-4)GlcNAc(b1-4)[Fuc(a1-6)]GlcNAc", "in_short": "as §1"}, "[10]": {"target": "Gal(b1-4)GlcNAc(b1-3)Gal(b1-4)GlcNAc(b1-3)Gal(b1-4)GlcNAc", "in_short": "as §1"}, "[11]": {"target": "Gal(b1-4)GlcNAc(b1-3)Gal(b1-4)GlcNAc(b1-3)Gal(b1-4)GlcNAc(b1-2)Man(a1-3)[Gal(b1-4)GlcNAc(b1-3)Gal(b1-4)GlcNAc(b1-3)Gal(b1-4)GlcNAc(b1-2)Man(a1-6)]Man(b1-4)GlcNAc(b1-4)GlcNAc", "in_short": "as §1"}, "[12]": {"target": "Gal(b1-4)GlcNAc(b1-3)Gal(b1-4)GlcNAc(b1-3)Gal(b1-4)GlcNAc(b1-2)Man(a1-3)[Gal(b1-4)GlcNAc(b1-3)Gal(b1-4)GlcNAc(b1-3)Gal(b1-4)GlcNAc(b1-2)Man(a1-6)]Man(b1-4)GlcNAc(b1-4)[Fuc(a1-6)]GlcNAc", "in_short": "as §1"}, "[13]": {"target": "Gal(b1-4)GlcNAc(b1-3)Gal(b1-4)GlcNAc(b1-3)Gal(b1-4)GlcNAc(b1-2)[Gal(b1-4)GlcNAc(b1-3)Gal(b1-4)GlcNAc(b1-3)Gal(b1-4)GlcNAc(b1-6)]Man(a1-6)[Gal(b1-4)GlcNAc(b1-3)Gal(b1-4)GlcNAc(b1-3)Gal(b1-4)GlcNAc(b1-2)Man(a1-3)]Man(b1-4)GlcNAc(b1-4)[Fuc(a1-6)]GlcNAc", "in_short": "as §1"}, "[14]": {"target": "Gal(b1-4)GlcNAc(b1-3)Gal(b1-4)GlcNAc(b1-3)Gal(b1-4)GlcNAc(b1-3)Gal(b1-4)GlcNAc(b1-2)Man(a1-3)[Gal(b1-4)GlcNAc(b1-3)Gal(b1-4)GlcNAc(b1-3)Gal(b1-4)GlcNAc(b1-3)Gal(b1-4)GlcNAc(b1-2)Man(a1-6)]Man(b1-4)GlcNAc(b1-4)GlcNAc", "in_short": "as §1"}, "[15]": {"target": "Gal(b1-4)GlcNAc(b1-3)Gal(b1-4)GlcNAc(b1-3)Gal(b1-4)GlcNAc(b1-3)Gal(b1-4)GlcNAc(b1-2)Man(a1-3)[Gal(b1-4)GlcNAc(b1-3)Gal(b1-4)GlcNAc(b1-3)Gal(b1-4)GlcNAc(b1-3)Gal(b1-4)GlcNAc(b1-2)Man(a1-6)]Man(b1-4)GlcNAc(b1-4)[Fuc(a1-6)]GlcNAc", "in_short": "as §1"}, "[16]": {"target": "Gal(b1-4)GlcNAc(b1-3)Gal(b1-4)GlcNAc(b1-3)Gal(b1-4)GlcNAc(b1-3)Gal(b1-4)GlcNAc(b1-2)[Gal(b1-4)GlcNAc(b1-3)Gal(b1-4)GlcNAc(b1-3)Gal(b1-4)GlcNAc(b1-3)Gal(b1-4)GlcNAc(b1-6)]Man(a1-6)[Gal(b1-4)GlcNAc(b1-3)Gal(b1-4)GlcNAc(b1-3)Gal(b1-4)GlcNAc(b1-3)Gal(b1-4)GlcNAc(b1-2)Man(a1-3)]Man(b1-4)GlcNAc(b1-4)[Fuc(a1-6)]GlcNAc", "in_short": "as §1"}, "[17]": {"target": "Gal(b1-4)GlcNAc(b1-3)Gal(b1-4)GlcNAc(b1-3)Gal(b1-4)GlcNAc(b1-3)Gal(b1-4)GlcNAc(b1-3)Gal(b1-4)GlcNAc(b1-2)Man(a1-3)[Gal(b1-4)GlcNAc(b1-3)Gal(b1-4)GlcNAc(b1-3)Gal(b1-4)GlcNAc(b1-3)Gal(b1-4)GlcNAc(b1-3)Gal(b1-4)GlcNAc(b1-2)Man(a1-6)]Man(b1-4)GlcNAc(b1-4)GlcNAc", "in_short": "as §1"}, "[18]": {"target": "Gal(b1-4)GlcNAc(b1-3)Gal(b1-4)GlcNAc(b1-3)Gal(b1-4)GlcNAc(b1-3)Gal(b1-4)GlcNAc(b1-3)Gal(b1-4)GlcNAc(b1-2)Man(a1-3)[Gal(b1-4)GlcNAc(b1-3)Gal(b1-4)GlcNAc(b1-3)Gal(b1-4)GlcNAc(b1-3)Gal(b1-4)GlcNAc(b1-3)Gal(b1-4)GlcNAc(b1-2)Man(a1-6)]Man(b1-4)GlcNAc(b1-4)[Fuc(a1-6)]GlcNAc", "in_short": "as §1"}, "[19]": {"target": "Gal(b1-4)GlcNAc(b1-3)Gal(b1-4)GlcNAc(b1-3)Gal(b1-4)GlcNAc(b1-3)Gal(b1-4)GlcNAc(b1-3)Gal(b1-4)GlcNAc(b1-2)[Gal(b1-4)GlcNAc(b1-3)Gal(b1-4)GlcNAc(b1-3)Gal(b1-4)GlcNAc(b1-3)Gal(b1-4)GlcNAc(b1-3)Gal(b1-4)GlcNAc(b1-6)]Man(a1-6)[Gal(b1-4)GlcNAc(b1-3)Gal(b1-4)GlcNAc(b1-3)Gal(b1-4)GlcNAc(b1-3)Gal(b1-4)GlcNAc(b1-3)Gal(b1-4)GlcNAc(b1-2)Man(a1-3)]Man(b1-4)GlcNAc(b1-4)[Fuc(a1-6)]GlcNAc", "in_short": "as §1"}, "[20]": {"target": "Gal(b1-4)GlcNAc(b1-3)Gal(b1-4)GlcNAc(b1-3)Gal(b1-4)GlcNAc(b1-3)Gal(b1-4)GlcNAc(b1-3)Gal(b1-4)GlcNAc(b1-3)Gal(b1-4)GlcNAc(b1-2)Man(a1-3)[Gal(b1-4)GlcNAc(b1-3)Gal(b1-4)GlcNAc(b1-3)Gal(b1-4)GlcNAc(b1-3)Gal(b1-4)GlcNAc(b1-3)Gal(b1-4)GlcNAc(b1-3)Gal(b1-4)GlcNAc(b1-2)Man(a1-6)]Man(b1-4)GlcNAc(b1-4)GlcNAc", "in_short": "as §1"}, "[21]": {"target": "Gal(b1-4)GlcNAc(b1-3)Gal(b1-4)GlcNAc(b1-3)GalNAc", "in_short": "as §1"}, "[22]": {"target": "Gal(b1-4)GlcNAc(b1-3)Gal(b1-4)GlcNAc(b1-3)[Gal(b1-4)GlcNAc(b1-3)Gal(b1-4)GlcNAc(b1-6)]GalNAc", "in_short": "as §1"}, "[23]": {"target": "Gal(b1-4)GlcNAc(b1-3)Gal(b1-4)GlcNAc(b1-6)[Gal(b1-3)]GalNAc", "in_short": "as §1"}},
  "note": "The other results are listed elsewhere or left out.",
  "data": [
    {"binder": "B1", "values": [
      {"measurement": "glycan array binding signal (z-score)", "setting": "[1]", "value": 0.228},
      {"measurement": "glycan array binding signal (z-score)", "setting": "[2]", "value": -0.043},
      {"measurement": "glycan array binding signal (z-score)", "setting": "[3]", "value": -0.349},
      {"measurement": "glycan array binding signal (z-score)", "setting": "[4]", "value": -0.143},
      {"measurement": "glycan array binding signal (z-score)", "setting": "[5]", "value": 0.101},
      {"measurement": "glycan array binding signal (z-score)", "setting": "[6]", "value": 1.96},
      {"measurement": "glycan array binding signal (z-score)", "setting": "[7]", "value": -0.444},
      {"measurement": "glycan array binding signal (z-score)", "setting": "[8]", "value": 0.321},
      {"measurement": "glycan array binding signal (z-score)", "setting": "[9]", "value": 0.649},
      {"measurement": "glycan array binding signal (z-score)", "setting": "[10]", "value": 0.165},
      {"measurement": "glycan array binding signal (z-score)", "setting": "[11]", "value": 1.89},
      {"measurement": "glycan array binding signal (z-score)", "setting": "[12]", "value": -0.603},
      {"measurement": "glycan array binding signal (z-score)", "setting": "[13]", "value": 0.569},
      {"measurement": "glycan array binding signal (z-score)", "setting": "[14]", "value": 0.157},
      {"measurement": "glycan array binding signal (z-score)", "setting": "[15]", "value": 0.557},
      {"measurement": "glycan array binding signal (z-score)", "setting": "[16]", "value": 2.32},
      {"measurement": "glycan array binding signal (z-score)", "setting": "[17]", "value": 0.006},
      {"measurement": "glycan array binding signal (z-score)", "setting": "[18]", "value": 0.529},
      {"measurement": "glycan array binding signal (z-score)", "setting": "[19]", "value": 1.47},
      {"measurement": "glycan array binding signal (z-score)", "setting": "[20]", "value": 1.41},
      {"measurement": "glycan array binding signal (z-score)", "setting": "[21]", "value": 0.04},
      {"measurement": "glycan array binding signal (z-score)", "setting": "[22]", "value": 1.21},
      {"measurement": "glycan array binding signal (z-score)", "setting": "[23]", "value": -0.588}
    ]}
  ]
}
